{
  "source": "patent US4749687A",
  "about": "“Renin inhibitors containing statine or derivatives thereof” (Pfizer Inc., priority 1985, dated 1988)",
  "note": "Where a name gives a salt, the structure may show the parent alone. Not every detail of the peptide structures is certain; ends, links or a residue may be inferred. Where a SMILES comes first, the peptide text is derived from it. [ ]: non-standard residue; d: D form. The star is where a group is joined. Sta = CC(C)C[C@H](N)[C@@H](O)CC(=O)O; Boc = CC(C)(C)OC(=O)*; GABA = NCCCC(=O)O",
  "data": [
    {"molecular_target": "T1, renin (Homo sapiens, UniProt P00797)", "T1 construct": "Blood plasma was obtained from healthy laboratory personnel, pooled and stored frozen until required; from tissue; host or cells: pooled human blood plasma (supernatant after centrifugation)", "T1 sequence (P00797 67-406)": "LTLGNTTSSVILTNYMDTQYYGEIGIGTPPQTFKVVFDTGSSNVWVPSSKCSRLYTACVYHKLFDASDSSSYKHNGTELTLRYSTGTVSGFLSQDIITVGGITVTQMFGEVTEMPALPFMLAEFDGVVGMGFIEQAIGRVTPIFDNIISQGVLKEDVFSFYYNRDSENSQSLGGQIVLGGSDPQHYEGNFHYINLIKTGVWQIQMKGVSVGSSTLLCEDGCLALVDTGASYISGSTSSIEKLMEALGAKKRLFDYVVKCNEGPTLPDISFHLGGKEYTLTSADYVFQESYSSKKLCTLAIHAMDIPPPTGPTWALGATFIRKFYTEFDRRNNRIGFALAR", "assay": "Inhibition of the angiotensinogen-cleaving activity of renin in vitro (plasma, angiotensin I radioimmunoassay)", "type": "biochemical", "settings": "pooled blood plasma from healthy laboratory personnel, pH 7.4, incubated three hours at 37° C., angiotensin I by radioimmunoassay; read-out: IC50 (inhibitor concentration required to produce a fifty percent inhibition of the angiotensinogen-cleaving activity of renin)", "procedure": "Blood plasma was obtained from healthy laboratory personnel, pooled and stored frozen until required. Before use, a quantity of this plasma was defrosted and centrifuged, and the supernatant mixed with protease inhibitors and buffered to pH 7.4. Renin inhibitors were added at different levels to different aliquots of the plasma supernatant, and the resulting mixtures (310 lambda) incubated for three hours at 37° C. along with renin inhibitor-free control mixtures. After incubation, the mixtures were quenched in ice water and each assayed for angiotensin I using angiotensin I antibody. The production of angiotensin I in the presence of a renin inhibitor was compared to that produced in the absence of the inhibitor, and a percentage inhibition was calculated. Using data obtained from duplicate incubations at each of several different inhibitor concentrations, the inhibitor concentration in the incubation mixture required to produce a fifty percent inhibition of the angiotensinogen-cleaving activity of renin, i.e. the IC50 of the inhibitor, was calculated for various different inhibitors.\nThe angiotensin I in the quenched incubation mixtures was assayed by means of a radioimmunoassay, using components of a renin radioimmunoassay kit supplied by Becton Dickinson and Co. (Orangeburg, N.Y.). This radioimmunoassay was based upon the one developed by Haber et al., J. Clin. Endocrinol., 29, pp. 1349-1355 (1969).", "units": {"IC50": "µM"}, "values": [
      {"smiles": "CC(C)C[C@H](NC(=O)[C@H](Cc1c[nH]cn1)NC(=O)[C@H](Cc1ccccc1)NC(=O)OC(C)(C)C)[C@@H](O)CC(=O)N[C@@H](CCCCN)C(=O)N[C@@H](Cc1ccccc1)C(=O)O", "note": "[Example 1, [N-(t-butyloxycarbonyl)-Phe]-His-Sta-Lys-Phe] (HELM PEPTIDE1{[CC(C)(C)OC(=O)[*:2]].F.H.[CC(C)C[C@H](N[*:1])[C@@H](O)CC(=O)[*:2]].K.F}$$$$V2.0)", "IC50": "< 4"},
      {"smiles": "CC[C@H](C)[C@H](NC(=O)C[C@H](O)[C@H](CC(C)C)NC(=O)[C@H](Cc1c[nH]cn1)NC(=O)[C@H](Cc1ccccc1)NC(=O)OC(C)(C)C)C(=O)N[C@@H](CC(C)C)[C@@H](O)CC(=O)O", "note": "[Example 2, [N-(t-butyloxycarbonyl)-Phe]-His-Sta-Ile-Sta (sodium Salt)] (Boc-FH[Sta]I[Sta]-OH)", "IC50": "< 4"},
      {"smiles": "CC[C@H](C)[C@H](NC(=O)C[C@H](O)[C@H](CC(C)C)NC(=O)[C@H](Cc1c[nH]cn1)NC(=O)[C@H](Cc1ccccc1)NC(=O)OC(C)(C)C)C(=O)NCCCC(=O)O", "note": "[Example 3] (Boc-FH[Sta]I[GABA]-OH)", "IC50": "< 4"},
      {"smiles": "CC[C@H](C)[C@@H](CCC(=O)O)NC(=O)C[C@H](O)[C@H](CC(C)C)NC(=O)[C@H](Cc1c[nH]cn1)NC(=O)[C@H](Cc1ccccc1)NC(=O)OC(C)(C)C", "note": "[Example 4, [N-(t-butyloxycarbonyl)-Phe]His-Sta[Amino(4-secbutyl-butyric Acid)]]", "IC50": "< 4"},
      {"smiles": "CC(C)C[C@H](NC(=O)[C@H](C)NC(=O)C[C@H](O)[C@H](CC(C)C)NC(=O)[C@H](Cc1c[nH]cn1)NC(=O)[C@H](Cc1ccccc1)NC(=O)OC(C)(C)C)[C@@H](O)CC(=O)N[C@@H](CCC(=O)O)C(=O)O", "note": "[Example 7, [N-(t-butyloxycarbonyl)-Phe]-His-Sta-Ala-Sta-Glu] (Boc-FH[Sta]A[Sta]E-OH)", "IC50": "< 4"},
      {"smiles": "CC[C@H](C)[C@@H](CN[C@@H](Cc1ccccc1)C(=O)O)NC(=O)C[C@H](O)[C@H](CC(C)C)NC(=O)[C@H](Cc1c[nH]cn1)NC(=O)[C@H](Cc1ccccc1)NC(=O)OC(C)(C)C", "note": "[Example 8, [N-(t-butyloxycarbonyl)-Phe]-His-Sta-[Amino(2-sec butyl-ethylene)]-Phe Acetic Acid Salt]", "IC50": "< 4"}
    ]}
  ]
}
